Columns and labels:
Assay type in all cases: cell-based
[1] = tested on: eIF4E S209 phosphorylation; experiment: AlphaScreen Surefire eIF4E S209 phosphorylation assay in PANC-1 cells; settings: 4E-BP1 protein levels low, normalised to GAPDH
Protocol: (§1) Ninety-six-well plates were seeded at 30,000 cells per well with non-transfected PC-3, PANC-1 or HKEK293 cells in DMEM with 10% FCS and incubated overnight. Cells were then washed with PBS and the media replaced with OPTI-MEM containing no serum. Cells were then treated with the indicated compounds. Controls were performed with DMSO vehicle treatments. Four hours post treatments, cells were lysed with 50 μl of passive lysis buffer (PerkinElmer) for 15 min and 10 μl of lysate from each well was transferred into a white bottom 384-well plate. GAPDH and pS209 eIF4E levels were assessed according to the manufacturer’s instructions (PerkinElmer) for each sample. Luminescence was measured using an Envision Multiplate reader (PerkinElmer).

[2] = tested on: eIF4E S209 phosphorylation; experiment: AlphaScreen Surefire eIF4E S209 phosphorylation assay in PC-3 cells; settings: PC3 cells, 4E-BP1 protein levels high, normalised to GAPDH; read-out: pEIF4E SureFire (IC50)
Protocol: as §1

[3] = tested on: eIF4E:eIF4G^604–646 complex; experiment: NanoBit eIF4E:eIF4G^604–646 protein complementation assay in PANC-1 cells; settings: for IC50: PANC cells, 4E-BP1 protein levels low, read-out: NanoBit eIF4E:4G (IC50)
Protocol: (§2) Twenty-four hours prior to transfection, cells (HEK293, PANC-1 or PC-3) were seeded at a cell density of 800,000 cells per well of a six-well plate (Thermo Fisher Scientific). Transfections in six-well plates were performed using Lipofectamine 3000 (Thermo Fisher Scientific) with 3 μg of the indicated plasmid vectors per well according to the manufacturer’s instructions. For knockdown experiment, siRNA Ctrl or 4EBP1 at a final concentration of 100 nM were included in the transfection mixture. Transfections utilising GFP and GFP-MYC contained 1 μg of each vector or empty vector, respectively. In the case of transfections utilising any of the 4EBP1 constructs described, only 0.5 μg of each vector or empty vector was used, respectively. After a 24- or 48-h (as indicated in the figure legends) incubation period, the medium was removed and cells were washed with PBS saline. Cells were then either lysed directly for immunoprecipitation experiments or were trypsinised and re-suspended in Opti-MEM media with 0% FCS to perform NanoBit and cell viability experiments in a 96-well format.
Either HEK293, PC-3 or PANC-1 cells were spun down at 1000 rpm for 5 min at room temperature. Supernatant was then discarded, and cells re-suspended to a density of to 220,000 cells per millilitre in Opti-MEM I cell media containing 0% FBS with no added red phenol. Then 90 μl of the cell re-suspension was added to the wells of a white opaque 96-well plate. Compounds were then titrated onto the 96-well plate using a suitable twofold dilution series from a 10× stock solution containing 10% v/v DMSO. Control wells were also treated with a 10% DMSO only stock solution to yield a final residual DMSO concentration of 1% v/v. The 96-well plates were then incubated for 4 h at 37 °C, with 5% CO2. […] The plates were then shaken for 1 min at 22 °C and luminescence assessed after additional 50 min using an Envision Multi-Plate reader (Perkin-Elmer). Plates were then multiplexed with CellTiter-GLO 2.0 reagent (PROMEGA) and cellular viability determined according to the manufacturer’s instruction. […]

[4] = tested on: eIF4E:eIF4G^604–646 complex; experiment: NanoBit eIF4E:eIF4G^604–646 protein complementation assay in HEK293 cells; settings: for IC50: HEK293, 4 h treatment, read-out: IC50, NanoBit eIF4E:eIF4G^604–646 signal
Protocol: Opaque 96-well plates were seeded with 20,000 HEK293 cells per well in DMEM and 10% FCS. Transfections in 96-well plate format were performed using FUGENE6 (Roche) with 100 ng of the indicated plasmid vectors per well as outlined in the manufacturer’s instructions (Fig. 1). Twenty-four hours after transfection, the medium was replaced with 100 μl of Opti-MEM I cell media containing 0% FCS with no added red phenol (Thermo Fisher Scientific) and luminescence activity assayed (as outlined in “NanoBit and cell viability experiments” section). Transfections utilising 4EBP1 constructs were performed with either 50 ng of the indicated construct or empty vector.
as §2, with “Cells were then either lysed directly for immunoprecipitation experiments or were trypsinised and re-suspended in Opti-MEM media with 0% FCS to perform NanoBit and cell viability experiments in a 96-well format.” left out
(§3) Either HEK293, PC-3 or PANC-1 cells were spun down at 1000 rpm for 5 min at room temperature. […] The plates were then shaken for 1 min at 22 °C and luminescence assessed after additional 50 min using an Envision Multi-Plate reader (Perkin-Elmer). Plates were then multiplexed with CellTiter-GLO 2.0 reagent (PROMEGA) and cellular viability determined according to the manufacturer’s instruction. […]

[5] = tested on: eIF4E:eIF4G^604–646 complex; experiment: NanoBit eIF4E:eIF4G^604–646 protein complementation assay in PC-3 cells; settings: PC3 cells, 4E-BP1 protein levels high; read-out: NanoBit eIF4E:4G (IC50)
Protocol: as §2, with “Cells were then either lysed directly for immunoprecipitation experiments or were trypsinised and re-suspended in Opti-MEM media with 0% FCS to perform NanoBit and cell viability experiments in a 96-well format.” left out
as §3

## CC(C)n1nc(-c2cc3cc(O)ccc3[nH]2)c2c(N)ncnc21 [PP242]
[1]
  pEIF4E SureFire (IC50, μM): No Inhibition
[2]
  IC50: 800 ± 400 nM
[3]; PANC cells expressing 4EBP1^WT
  Activity in PANC cells transfected with 4EBP1^WT vector: restored
[3]; listed as PP2442
  IC50: 0.07 ± 0.04 µM
[3]
  IC50: 9.18 ± 4.25 µM
[4]; listed as PP2442
  IC50: 9.18 ± 4.25 µM
[4]
  IC50: 0.72 ± 0.04 µM
[4]; HEK293, si4EBP1 versus siCtrl
  Attenuation of potency by siRNA-mediated knockdown of 4EBP1: fivefold
[5]
  IC50: 110 ± 20 nM
